Measured values from patent publication US20220372154A1 (APEXIGEN, published 2022).
No constants are given. Whether binding was seen depends on the method and setting. Some results given as binding are weak or reduced against the parent protein; the word gives no strength.

Protein sequences, listed by entry. Tags and fused reporters are not part of them. Residues count along the entry.
UniProt P20333, residues 23-257: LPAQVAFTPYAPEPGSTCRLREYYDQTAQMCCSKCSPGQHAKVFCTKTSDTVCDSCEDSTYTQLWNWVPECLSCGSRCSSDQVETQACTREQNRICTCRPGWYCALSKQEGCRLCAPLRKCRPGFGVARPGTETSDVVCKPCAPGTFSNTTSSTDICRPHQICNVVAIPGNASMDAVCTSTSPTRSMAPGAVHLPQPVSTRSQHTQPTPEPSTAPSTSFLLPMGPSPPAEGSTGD

What was measured:
[1] = target: TNFR2 (as used in the Octet measurement) (UniProt P20333); test: Octet (biolayer interferometry), monovalent binding
[2] = target: cynomolgus TNFR2-His tagged protein (cynomolgus); test: ELISA
[3] = target: cynomolgus TNFR2-His tagged protein (cynomolgus); test: ELISA on coated cynoTNFR2-His, OD 450 nm

Measured: binding

B1: humanized antibody h600-25-71 (antibody, V domains shown)
VH: EVQLVESGGGLVQPGGSLRLSCAASGIDLSSYAMGWVRQAPGKGLEWVGDISTSGNAYYATWVKGRFTISRDNSKNTLYLQMNSLRAEDTAVYYCARADYGGETYAFDPWGQGTLVTVSS
VL: DIQMTQSPSSLSASVGDRVTITCQASQSISSYLNWYQQKPGKAPKLLIYSASTLASGVPSRFSGSGSGTDFTLTISSLQPEDFATYYCQQGYSDSNIDNVFGGGTKVEIK
notes: also called Ab 25-71; clone 25-71
binds: all assays above

B2: humanized antibody h600-25-108 (antibody, V domains shown)
VH: EVQLVESGGGLVQPGGSLRLSCAASGFSLSDYFMTWVRQAPGKGLEWVGIINTGGDSYYATWAKGRFTISRDNSKNTLYLQMNSLRAEDTAVYYCARDTGYGGYDYAGSFDPWGQGTLVTVSS
VL: DIQMTQSPSSVSASVGDRVTITCQASENINSWLAWYQQKPGKAPKLLIYEASKLASGVPSRFSGSGSGTDFTLTISSLQPEDFATYYCQQGYIYIDVGNIFGGGTKVEIK
binds: all assays above
